{"source": "paper PMC4904373", "about": "“Azole Antifungal Sensitivity of Sterol 14α-Demethylase (CYP51) and CYP5218 from Malassezia globosa” (Scientific Reports, 2016)", "system": "M. globosa ATCC MYA-4612", "test": "M. globosa MIC100 determination", "type": "cell-based, Malassezia globosa", "settings": "based on MIC100", "description": "M. globosa ATCC MYA-4612 was grown for 7 days at 30 °C in modified Dixon medium (3.6% malt extract, 2% desiccated ox-bile, 1% Tween 40, 0.6% peptone, 0.2% glycerol, 0.2% oleic acid, pH adjusted to 6 with HCl) until a culture density of 1.5 × 10^5 cells ml^−1 was obtained. Cells from 3 ml of stock culture were harvested, suspended in 1 ml of saline and used to inoculate 30 ml of fresh modified Dixon medium for use as M. globosa inoculums in MIC determinations. Stock azole concentrations of 1600, 800, 400, 200, 100, 50, 25, 12.5, 6.25, 3.125 and 0 μg ml^−1 were prepared in DMSO. These were diluted ten-fold with fresh modified Dixon media and 20 μl of the diluted azole solutions were then mixed with 180 μl of M. globosa inoculum in microtiter plate wells to yield final azole concentrations of 16, 8, 4, 2, 1, 0.5, 0.25, 0.125, 0.0625, 0.03125 and 0 μg ml^−1. The microtiter plates were incubated at 30 °C for 7 days and then read. Each azole MIC100 determination was performed in triplicate.", "data": [{"smiles": "CC(=O)N1CCN(c2ccc(NCC3COC(Cn4ccnc4)(c4ccc(Cl)cc4Cl)O3)cc2)CC1", "note": "(stereo not drawn) [ketaminazole]", "values": [{"measurement": "fold less effective than itraconazole at arresting M. globosa growth", "result": 128, "unit": "fold"}, {"measurement": "fold less effective than ketoconazole at arresting M. globosa growth", "result": "~ 32 fold"}, {"measurement": "fold less effective than ketoconazole at arresting M. globosa growth", "setting": "listed as Ketaminazole", "result": 32, "unit": "fold"}]}]}
